## Library screen at single concentrations

The filed quantity is “Percent Effect” (%). How 0% and 100% were set is not recorded. Most values in the screen are low, and negative values occur. Compounds were drawn at random from those tested, without regard to their results.

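Assay of Toxoplasma gondii numbers, read through their beta-galactosidase reporter with a colour substrate. Concentration: 50 µM. Higher reads as fewer parasites (inferred from which compounds were picked for retests). About 18,000 compounds were tested under these conditions; 0.94% (about 170) showed 50% or more at least once.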

compound | effect
O=C(NC1CNC1)C1CC1 | -9.255%
COc1cccc(CNc2nc(C(C)C)nn2C)n1 | -3.541%
COc1nccnc1CN1CCN(C)CC1C(C)C (stereo not shown) | -6.884%
NC(=O)C1CCN(Cc2ccc(Br)c3cccnc23)C1 (stereo not shown) | -2.785%
COCCN1CCCN(C(=O)c2csc(Br)c2)CC1 | -0.621%
CS(=O)(=O)Cc1ccccc1NCc1ccsc1 | -5.849%
CNC(=O)CN(C)C(=O)CCc1ccc(Br)cc1F | 0.9597%
O=C(CCc1ccccc1O)NC1CCN(C2CC2)C1 (stereo not shown) | -1.953%
CC(C)N(C)S(=O)(=O)NCC(c1ccsc1)N(C)C (stereo not shown) | 2.126%
CCCN1CCCN(C(=O)c2ccc(C)nc2)CC1 | 10.21%
COC(=O)CNC(=O)C1(c2ccccc2)CCC1 | -8.978%
CN(C)CCOc1ccc(NS(C)(=O)=O)cc1 | -9.798%
C=C(C)CNc1nc2nonc2nc1NCCOC | 14.38%
Cc1ccc(CN2CCC(N)C2=O)cc1 (stereo not shown) | 0.3266%
CC(C)c1nc(CN2C(=O)COc3cccnc32)no1 | 14.09%
Nc1c(NCc2ccncc2)ncnc1-n1cccn1 | -4.251%
Cc1ccccc1CC(=O)NCC1(CO)CC1 | -8.596%
O=C(CCOCC(F)(F)F)NCCNc1ccccc1 | 18.13%
CCCS(=O)(=O)NCCOc1ccc(C#N)cc1 | 12.5%
CN(C)S(=O)(=O)NCCN | -10.84%
CN(C)C(CNC(=O)Nc1nccs1)c1ccco1 (stereo not shown) | -14.05%
Cc1cc(NC(=O)NCCN2CCCC2)no1 | -3.389%
O=C(Nc1cc(C(F)(F)F)ccn1)C1CCOC1 (stereo not shown) | 0.6441%
O=C(Nc1cncc(Br)c1O)C1=CCCC1 | 17.37%
COC(=O)[C@@H]1C[C@@H](O)CN1CC(=O)N1CCCCCC1 | 6.357%
CCn1ncnc1CN1CCC(O)(CO)CC1 | 2.098%
NC1CCN(CC(=O)N2CCOCC2)CC1 | 1.659%
Nc1nnc(-c2ccco2)[nH]1 | -10.15%
CCN(CCn1cccn1)C(=O)c1cc(C(C)C)no1 | -13.24%
Cc1ccc(CNC(=O)c2cnn(C)c2)cc1F | 8.357%
Cc1cc(C)n(CC2CCNCC2)n1 | 47.88%
c1ccc(NCCN2CCOCC2)cc1 | -1.592%
CN(Cc1ccccc1Br)C(=O)c1nccnc1N | 2.76%
O=C(c1c(F)cccc1Cl)N1CCNCC1 | -19.89%
Cc1ccc(C)c(C(=O)N2CCC(N)C2)c1 (stereo not shown) | 30.57%
COc1ccc(OC)c(NC(=O)C(C)C)c1 | -14.03%
Cc1cc(NC(=O)CNC(C)c2ccncc2)n(C)n1 (stereo not shown) | 8.713%
CC1(C)COCCN1C(=O)c1cccc(NC(N)=O)c1 | -5.386%
Cc1ccc(NC(=O)CN2CCCCC2=O)c(C)c1O | 9.934%
O=C(c1cnsn1)N1CCSCC1c1ccccc1 (stereo not shown) | -5.517%
CN(CC1CC(O)C1)C(=O)c1ccc2ccccc2n1 (stereo not shown) | 1.643%
CCOc1cccc(C(C)NC(=O)CNC(C)=O)c1 (stereo not shown) | 2.057%
O=C(Cc1cccc(O)c1)NCCCN1CCOCC1 | -2.064%
Cc1n[nH]c(SCC(=O)NCCCc2csc(N)n2)n1 | -4.743%
NCc1ccc(C(=O)Nc2ccncc2)cc1 | -9.674%
Cc1ccc(-c2nc(CSc3nnc(N)[nH]3)no2)cc1 | 6.494%
N[C@H]1CN(S(=O)(=O)c2cccc(Cl)c2)C[C@@H]1C1CC1 | 21.04%
Nc1cnn(CC(=O)Nc2cccnc2)c1 | -1.716%
COCC(=O)Nc1ccc(-n2cccn2)nc1 | 5.386%
Cc1ccc(C2CC(=O)NC(SCC(N)=O)=C2C#N)o1 (stereo not shown) | 1.39%
NC(=O)CCNC1CCOc2ccccc21 (stereo not shown) | -7.683%
Cc1ncsc1C(=O)NCC1CN(CC(C)C)CCO1 (stereo not shown) | 14.81%
CCOc1ccc(C(=O)N2CCN(CCO)CC2)cn1 | 2.54%
COc1ccc(CNCCn2cccn2)cc1F | 10.4%
CC(C)(N)c1nc(=O)c2c([nH]1)CCC2 | -1.688%
Cc1nccn1-c1ccc(C(C)N)cc1F (stereo not shown) | 6.626%
Cc1cc(C)cc(C(=O)N2CCN(CCC#N)CC2)c1 | 8.091%
COC(=O)CCN(Cc1nccn1C)CC1CCCO1 (stereo not shown) | -22.2%
CC(C)(CO)NC(=O)CCC(=O)c1cccs1 | 10.15%
CS(=O)(=O)Nc1ccc(OCCN)cc1 | 2.249%
c1ccc(CN2CCCCC2CN2CCOCC2)nc1 (stereo not shown) | 0.3006%
Cc1ncsc1C(=O)NCc1ccnc(N(C)C)c1 | -2.53%
CC1CCN(CC(=O)NC(C)(C#N)C2CC2)CC1 (stereo not shown) | -8.284%
CNc1cc(C#N)c2ccccc2n1 | -21.13%
COc1ccccc1-c1noc(C(C)N)n1 (stereo not shown) | -14.49%
CNCCOc1ccccc1OC | 5.026%
NCc1cccc(C(N)=O)n1 | 32.37%

7 of the entries, repeated:

{"compound": "O=C(Nc1cc(C(F)(F)F)ccn1)C1CCOC1", "stereo": "stereo not shown", "effect": 0.6441}
{"compound": "CCCS(=O)(=O)NCCOc1ccc(C#N)cc1", "effect": 12.5}
{"compound": "Nc1c(NCc2ccncc2)ncnc1-n1cccn1", "effect": -4.251}
{"compound": "NC(=O)CCNC1CCOc2ccccc21", "stereo": "stereo not shown", "effect": -7.683}
{"compound": "Cc1ccc(C2CC(=O)NC(SCC(N)=O)=C2C#N)o1", "stereo": "stereo not shown", "effect": 1.39}
{"compound": "COCCN1CCCN(C(=O)c2csc(Br)c2)CC1", "effect": -0.621}
{"compound": "NC1CCN(CC(=O)N2CCOCC2)CC1", "effect": 1.659}

The values are deposited in ChEMBL (CHEMBL3988442, “University of Dundee, Small-Polar-MMV Screening Library” (2021)).